This is one part of the list.
B1: il2ra_site2_2erj_sap_18_mot_HHH_b2_00732_af2_000000006_0001_23_40_H_._HHH_b2_05171_af2_0001_0000300019_0000001_0_0001 (protein)
chain: SSSSSLHELYELANRLMHLVHNNDEEEFEELLREAQELAEKFGSDVVKEILERLKELIKGSSSSS
B2: il2ra_site2_3nfp_normal_mot_HHH_b1_06589_000000230_0001_37_50_H_._HHH_b1_07348_af2_0001_0000500014_0000001_0 (protein)
chain: SSSSSDEERERAEELLEEAKQISDPEEFEEVIAEALRLAIEAGDAELYMAIAELSFEFRSSSSSS
B3: il2ra_site1_3nfp_normal_mot_HHH_b2_06725_000000083_0001_1_20_H_._HHH_b2_03844_0001_0000700022_0000001_1_af2pred_0001_af2pred (protein)
chain: SSSSSTSASEKVLRLLEEALHVEDPKEFEELIEEAEELAEENNNPTLERTIEAAHKLHSQSSSSS
B4: il2ra_site1_3nfp_sap_14_mot_HHH_b1_05843_af2_000000150_0001_1_20_H_._HHH_b2_02396_0001_0000300026_0000001_0_0001 (protein)
chain: SSSSTEEEIEELKEELKRVMEKGDFQRAARLIDEIYKLISRADDPELRRELQELLREFQRLSSSS
B5: il2ra_site2_2erj_sap_26_mot_HHH_b2_03469_000000216_0001_20_36_H_._HHH_b1_02176_af2_0001_0000200009_0000001_0_0001 (protein)
chain: SSSSSSLHELYELANRIMHALANNDEEEAEKLIEEAEELIKKLGSDTAREILEWLRREVNSSSSS
B6: il2ra_site2_2erj_sap_23_mot_HHH_b2_01204_af2_000000056_0001_19_34_H_._HHH_b2_01294_af2_0001_0000400036_0000001_0_0001 (protein)
chain: SSSSSDKEEVQEEVEELLEEARHADLHEIYELLNEALRLAAELRDPELLRLVRRFMEEWSSSSSS
B7: il2ra_site1_3nfp_normal_mot_HHH_b1_07204_af2_000000238_0001_41_55_H_._3636d11ad4101c8d40e62ba374344ff5_0001_af2_0001_0000100006_0000001_1 (protein)
chain: SELKEEVKKALEEGNALLLSRLIRELARLLQEGDPEAHEVLELLLELARELGDPILERLLEDILK
B8: il2ra_site2_2erj_sap_15_mot_HHH_b2_06236_000000050_0001_39_52_H_._HHH_b2_05940_0001_0000600008_0000001_0_0001 (protein)
chain: SSSSDEAWEEVAELLARALEAFKNNDEELLEKLLEEARRIAEENNSEAAKRYVEFARRLTKSSSS
B9: il2ra_site1_3nfp_sap_15_mot_HHH_b1_01736_000000293_0001_24_39_H_._HHH_b2_04807_af2_0001_0000400020_0000001_0_0001_af2pred_0001_af2pred (protein)
chain: SSSSNAREELRELIRLVAELYRNGNPEEAREVAEEAIELARELNSPNARRFAELALEQLNSSSSS
B10: il2ra_site2_2erj_normal_mot_HHH_b2_01353_af2_000000049_0001_23_39_H_._HHH_b1_04468_af2_0001_0000300013_0000001_0 (protein)
chain: SSSSDEEEEAEELLREVKRLYEEGNPEEAEKLAREVSERLFRLGNFEFFAILAELVHRIARSSSS
B11: il2ra_site2_2erj_sap_12_mot_HHH_b1_05666_000000037_0001_42_55_H_._HHH_b2_06677_0001_0000400020_0000001_0_0001 (protein)
chain: SSSSDERLHELYKLANELLRLEFEGDEERIEELLQRVRELAEELKSDAARELVERVEKKLSSSSS
B12: il2ra_site1_1z92_normal_mot_9c3e5e2d2b9ffb70dc788f52fbfab6d5_0001_1_af2_000000019_0001_53_65_H_._1120a227123fe120892103896c8fe6e4_0001_1_0001_0000100002_0000001 … (protein)
chain: DAEEVLEEAAKLVKEGNPEEAKRLLEELVEKLGDPALRVLLKIVERLLREGDEERVHKLLHKLAR
B13: il2ra_site1_2b5i_normal_mot_HHH_b1_02271_000000068_0001_1_16_H_._HHH_b1_08571_af2_0001_0000500013_0000001_0_af2pred_dldesign_0_af2pred (protein)
chain: SSSSSDVLAEARRLYERARELKAAGKRREALELLEEAKKLADAADDEELQDRIEALAKEVSSSSS
B14: il2ra_site2_2erj_sap_21_mot_118502477c40609e6006f550458cdfaf_0001_af2_000000174_0001_16_29_H_._HHH_b1_00513_0001_0000200007_0000001_0_0001 (protein)
chain: SSSSSDEEREEILELLAEAAEIPDPEEVERLLREALELAREINDETLVRYIELALEHLEESSSSS
B15: il2ra_site1_3nfp_normal_mot_ems_3hM_3354_af2_000000165_0001_44_63_H_._HEEHE_2118_0001_0000200030_0000001_1 (protein)
chain: DFLEEFSKAVERVAEIVGVPHVSVSVSNGSVEVTFEGDDLQARAASKIVEEMARAAGIKVEVTVE
B16: il2ra_site2_3nfp_normal_mot_HHH_b1_05627_af2_000000038_0001_43_56_H_._HHH_b1_06090_0001_0000200013_0000001_0 (protein)
chain: SSSSDKREEYVEAALLAARLALEDGDPEIAEKHLEAALQLAEDIGNEELFEEIERLLRELRSSSS
B17: il2ra_site2_3nfp_normal_mot_HHH_b1_00660_af2_000000090_0001_40_57_H_._HHH_b1_04356_0001_0000200019_0000001_0 (protein)
chain: SSSSDRERVEELLEELKEAVERNDEELFRKLVREISNLIYEIGDFELFAILQELRFLFVQSSSSS
B18: il2ra_site1_3nfp_normal_mot_ems_3hM_3354_af2_000000165_0001_44_63_H_._HEEHE_2367_0001_0000200020_0000001_0 (protein)
chain: DEEEFEREIEKAIKRAARVDDVEVSVSNGRVEVTVNGNDVQARAALRIVELLVRSAGFEVTVTFE
B19: il2ra_site1_3nfp_sap_14_mot_HHH_b1_08149_af2_000000062_0001_43_57_H_._HHH_b1_02393_0001_0000400024_0000001_0_0001 (protein)
chain: SSSSDMQEIDRLLQEVMRLIANGNLEEAQELLERARELVEELGDELAKFLVEELEEHIKRRSSSS

target: il2ra, P01589; assay: yeast display titration

Apparent Kd, inactive:
B1 no binding seen, B2 no binding seen, B3 no binding seen, B4 no binding seen, B5 no binding seen, B6 no binding seen, B7 no binding seen, B8 no binding seen, B9 no binding seen, B10 no binding seen, B11 no binding seen, B12 no binding seen, B13 no binding seen, B14 no binding seen, B15 no binding seen, B16 no binding seen, B17 no binding seen, B18 no binding seen, B19 no binding seen
